At least one compound was matched to its structure with a doubt left.
Legend:
HCV29 cells [1] = test: RNA-Seq gene expression, HCV29 vs TSC1-HCV29; type: cell-based, human; conditions: 30 nM, 6 hours, HCV.29-TSC1− cells
Text: However, the inventors focused on expression of all genes involved in the synthesis of reduced glutathione.

HCV29 xenograft tumors = HCV29 xenograft tumors in Foxn1nu mice (Example 1); type: in vivo
Text: FIG. 3. […] Treatment groups are indicated. […] Caliper measurements were used to calculate tumor volume.
HCV29 xenograft tumors were induced in immune-deficient Foxn1^nu mice by injection of 10^7 cells into each flank. […] Tumor size was monitored using calipers.

[2] = tested on: HCV.29-TSC1− xenograft tumors; test: HCV29-TSC1- xenograft model (Example 2); type: in vivo, mice; conditions: for tumor growth after treatment discontinued: 2 months after one month of treatment; for tumor size (calipers): 30 days treatment; for apoptotic cell death in tumors: after 4 weeks; for cell proliferation, Ki-67: in comparison to control
Method: FIGS. 14A-14D. […] Tumor size was measured every 3rd day using a digital caliper. […] This was quantified by counting four to six random fields per section. Scale bar=50 μm. **p<0.01, ***p<0.001. […] This was quantified by counting four to six random fields per section. Scale bar 50 μm. not shown (n=6) ***p<0.001. (FIG. 14D) Diagram showing glutathione synthetic pathway and ROS generation in TSC mutant cells. Top, TSC-deficient cells have hyperactive mTORC1, leading to increased ROS, NRF2 induction, and an increase in transcription of glutathione synthetic genes to yield more glutathione to buffer the increased ROS.
FIGS. 15A-15C. (FIG. 15A) Average body weight of TSC1-deficient HCV.29 xenograft mice in each treatment group. […] (n=4 tumors per group). ***p<0.001.
Tumor volumes were measured by calipers. […] Finally, in a cohort of xenograft mice, the treatments were discontinued and tumor growth was observed without intervention after the one month of treatment.

HCV29 cells [3] = test: Cleaved caspase 3 immunoblot; type: cell-based, human; conditions: THZ1-treated HCV29
HCV29 cells [4] = test: ROS levels; type: cell-based, human; conditions: THZ1 30 nM, rapamycin 20 nM or both

CN(C)C/C=C/C(=O)Nc1ccc(C(=O)Nc2cccc(Nc3ncc(Cl)c(-c4c[nH]c5ccccc45)n3)c2)cc1 [THZ1]
NFE2L2 (NRF2) expression (HCV29 cells [1]): reduced in expression | tumor growth rate (HCV29 xenograft tumors; THZ1 10 mg/kg IP twice daily +/− rapamycin, 30 days, vs controls): markedly reduced | tumor regrowth after cessation of treatment (HCV29 xenograft tumors; after 30 days of treatment): no regrowth after cessation of treatment for over 60 days | tumor growth after treatment discontinued [2]: no re-growth of subcutaneous tumors | tumor size (calipers) [2]: significant reduction in the size of the tumor nodules | apoptotic cell death in tumors [2]: persistent apoptotic cell death after 4 weeks | cell proliferation, Ki-67 [2]: markedly reduced | cleaved Caspase 3 (HCV29 cells [3]): markedly increased

CO[C@H]1C[C@@H]2CC[C@@H](C)[C@@](O)(O2)C(=O)C(=O)N2CCCC[C@H]2C(=O)O[C@H]([C@H](C)C[C@@H]2CC[C@@H](O)[C@H](OC)C2)CC(=O)[C@H](C)/C=C(\C)[C@@H](O)[C@@H](OC)C(=O)[C@H](C)C[C@H](C)/C=C/C=C/C=C/1C [rapamycin]
ROS levels increase (HCV29 cells [4]): no change | tumor growth after treatment discontinued [2]: progressive tumor growth over 2 months | tumor size (calipers) [2]: reduced growth rate, but did not show reduction in tumor size | apoptotic cell death in tumors [2]: not seen | cell proliferation, Ki-67 [2]: markedly reduced

— US20200197392A1, “COMPOSITIONS AND METHODS FOR TREATING TUBEROUS SCLEROSIS COMPLEX” (THE BRIGHAM & WOMEN'S HOSPITAL, INC., priority 2017, published 2020)
